Results from patent US20260193363A1.
Results are given in words; binding and its absence hold for the method and conditions named.

Columns and labels:
[1] = biological target: wild-type EGFR on F98EGFR cells (rat glioma F98 transfected with full-length EGFR) (UniProt P00533); assay: flow cytometry on F98EGFR cells
[2] = biological target: wild-type EGFR on F98EGFR cells (rat glioma F98 transfected with full-length EGFR) (UniProt P00533); assay: flow cytometry, F98-EGFR cells
[3] = biological target: wild-type EGFR on F98EGFR cells (rat glioma F98 transfected with full-length EGFR) (UniProt P00533); assay: flow cytometry, hybridoma supernatant, F98EGFR cells, Median (PE-A)
[4] = biological target: EGFR overexpressed on cancer cell lines MDA-MB-468 and A431 (human) (UniProt P00533); assay: flow cytometry on MDA-MB-468 cells; substantially similar result on A431 cells
[5] = biological target: EGFR overexpressed on cancer cell lines MDA-MB-468 and A431 (human) (UniProt P00533); assay: flow cytometry, hybridoma supernatant, MDA-MB-468 cells, Geometric Mean (PE-A)

Row | binding [1] | binding [2] | binding [4] | Binder | binding [3] | binding [5]
1 | no binding (tested: 2 µg/ml) | no binding (tested: 2 µg/ml) | no binding (tested: 2 µg/ml) | monoclonal antibody 1D9 (antibody, V domains shown) VH: QVQLKQSGRSLVQPSQSLSITCTVSGFSLTDYGVHWIRQSPGKGLEWLGVIWRSGRTDYNAVFMSRLSITKDNSKSQVFFKMNGLQTDDTAIYYCAKNGPFGNFAGYWGQGTPVAVSA VL: DIVMSQSPSSLAVSVGEKVTMRCRSSQSLLDSYHQKNYLAWYLQKPGQSPKLLIYWASTRESGVPDRFTGSGSGTDFTLTISSVKAEDLAVYYCQEYYRYPYTFGGGTKLEIK | no binding (tested: 1:10 dilution of supernatant) | –
2 | no binding (tested: 2 µg/ml) | no binding (tested: 2 µg/ml) | no binding (tested: 2 µg/ml) | monoclonal antibody 4A4 (antibody, V domains shown) VH: QVQLKQSGRSLVQPSQSLSITCTVSGFSLTDYGVHWIRQSPGKGLEWLGVIWRSGRTDYNAVFMSRLSITKDNSKSQVFFKMNGLLIEDTAIYYCAKNGPFGNFAGYWGQGTPVAVSA VL: DIVMSQSPSSLAVSVGEKVTMRCRSSQSLLDSYHQKNYLAWYLQKPGQSPKLLIYWASTRESGVPDRFTGSGSGTDFTLTISSVKAEDLAAYYCQEYYRYPYTFGGGTKLEIK | no binding (tested: 1:10 dilution of supernatant) | no binding (tested: 1:10 dilution of supernatant)
